{"source": "PubChem BioAssay AID504764 (Drosophila RNAi Screening Center, 2011)", "assay": "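Genes whose knock-down alters Notch-dependent transcription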 (primary screen)", "system": "Drosophila Kc167 cells", "reagent": "long dsRNA against Drosophila genes", "timing": "about 5 days (4 days dsRNA, then 24 h after transfection)", "conditions": "transfection of constitutively active membrane-tethered Notch lacking the extracellular domain, read 24 h later", "measured": "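Light from a Notch-responsive E(spl)m3 luciferase reporter under active Notch, with control-promoter and no-Notch reporter wells to normalise; raw counts from paired wells a and b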", "scale": "induced reporter light, run 1, well a and induced reporter light, run 1, well b: higher = more light from the Notch target reporter with active Notch; control promoter light, run 1, well a and control promoter light, run 1, well b: higher = more light from the viral control promoter (cell number, transfection, viability); uninduced reporter light, run 1, well a: higher = more light from the Notch target reporter without active Notch", "rule for the call": "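Hit if the duplicate-averaged log2 ratio of induced to control-promoter light gives a plate-wise z beyond ±2, or induced to uninduced beyond ±1.8; weak-control or discordant-duplicate wells dropped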", "meaning of the calls": "active = modifier hit (raised or lowered Notch signal); inactive = not a hit", "note": "The deposit covers about 22,000 reagents; below is an unselected part of those that have a named target and a result. Of all reagents, 403 (1.9%) are marked active. 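Unnormalised raw counts per well; ratio z-scores behind the hit calls and whether each hit raises or lowers signal are not deposited.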 Not given: the amount of reagent."}
{"Target gene": "sut3", "dsRNA": "DRSC07702", "induced reporter light, run 1, well a": 2.08e5, "induced reporter light, run 1, well b": 1.86e5, "control promoter light, run 1, well a": 1.97e5, "control promoter light, run 1, well b": 1.62e5, "uninduced reporter light, run 1, well a": 14675, "Outcome": "inactive"}
{"Target gene": "Nup37", "dsRNA": "DRSC14419", "induced reporter light, run 1, well a": 1.70e5, "induced reporter light, run 1, well b": 1.69e5, "control promoter light, run 1, well a": 2.28e5, "control promoter light, run 1, well b": 2.17e5, "uninduced reporter light, run 1, well a": 12585, "Outcome": "inactive"}
{"Target gene": "CG12831", "dsRNA": "DRSC06179", "induced reporter light, run 1, well a": 2.62e5, "induced reporter light, run 1, well b": 2.04e5, "control promoter light, run 1, well a": 2.26e5, "control promoter light, run 1, well b": 2.93e5, "uninduced reporter light, run 1, well a": 19690, "Outcome": "inactive"}
{"Target gene": "MESR6", "dsRNA": "DRSC10720", "induced reporter light, run 1, well a": 1.28e5, "induced reporter light, run 1, well b": 1.02e5, "control promoter light, run 1, well a": 61475, "control promoter light, run 1, well b": 84705, "uninduced reporter light, run 1, well a": 8335, "Outcome": "inactive"}
{"Target gene": "babos", "dsRNA": "DRSC03923", "induced reporter light, run 1, well a": 83430, "induced reporter light, run 1, well b": 64160, "control promoter light, run 1, well a": 65230, "control promoter light, run 1, well b": 72570, "uninduced reporter light, run 1, well a": 8110, "Outcome": "inactive"}
{"Target gene": "babos", "dsRNA": "DRSC04397", "induced reporter light, run 1, well a": 1.83e5, "induced reporter light, run 1, well b": 2.14e5, "control promoter light, run 1, well a": 1.64e5, "control promoter light, run 1, well b": 1.87e5, "uninduced reporter light, run 1, well a": 13790, "Outcome": "inactive"}
{"Target gene": "Gel", "dsRNA": "DRSC12350", "induced reporter light, run 1, well a": 98305, "induced reporter light, run 1, well b": 1.18e5, "control promoter light, run 1, well a": 79110, "control promoter light, run 1, well b": 92020, "uninduced reporter light, run 1, well a": 8455, "Outcome": "inactive"}
{"Target gene": "Mrgn1", "dsRNA": "DRSC20223", "induced reporter light, run 1, well a": 2.05e5, "induced reporter light, run 1, well b": 1.90e5, "control promoter light, run 1, well a": 2.81e5, "control promoter light, run 1, well b": 2.59e5, "uninduced reporter light, run 1, well a": 15200, "Outcome": "inactive"}

Records listed so far whose gene name starts with B or b (2):
{"Target gene": "babos", "dsRNA": "DRSC03923", "induced reporter light, run 1, well a": 83430, "induced reporter light, run 1, well b": 64160, "control promoter light, run 1, well a": 65230, "control promoter light, run 1, well b": 72570, "uninduced reporter light, run 1, well a": 8110, "Outcome": "inactive"}
{"Target gene": "babos", "dsRNA": "DRSC04397", "induced reporter light, run 1, well a": 1.83e5, "induced reporter light, run 1, well b": 2.14e5, "control promoter light, run 1, well a": 1.64e5, "control promoter light, run 1, well b": 1.87e5, "uninduced reporter light, run 1, well a": 13790, "Outcome": "inactive"}

The list goes on:
{"Target gene": "Osi5", "dsRNA": "DRSC12276", "induced reporter light, run 1, well a": 87445, "induced reporter light, run 1, well b": 92945, "control promoter light, run 1, well a": 91660, "control promoter light, run 1, well b": 67815, "uninduced reporter light, run 1, well a": 7895, "Outcome": "inactive"}
{"Target gene": "Pkc53E", "dsRNA": "DRSC05636", "induced reporter light, run 1, well a": 83605, "induced reporter light, run 1, well b": 99035, "control promoter light, run 1, well a": 95025, "control promoter light, run 1, well b": 83685, "uninduced reporter light, run 1, well a": 6265, "Outcome": "inactive"}
{"Target gene": "Pkc53E", "dsRNA": "DRSC07510", "induced reporter light, run 1, well a": 1.17e5, "induced reporter light, run 1, well b": 1.06e5, "control promoter light, run 1, well a": 2.16e5, "control promoter light, run 1, well b": 2.38e5, "uninduced reporter light, run 1, well a": 9200, "Outcome": "inactive"}
{"Target gene": "nesd", "dsRNA": "DRSC02099", "induced reporter light, run 1, well a": 2.58e5, "induced reporter light, run 1, well b": 2.33e5, "control promoter light, run 1, well a": 2.44e5, "control promoter light, run 1, well b": 2.74e5, "uninduced reporter light, run 1, well a": 18240, "Outcome": "inactive"}
{"Target gene": "CG31262", "dsRNA": "DRSC13216", "induced reporter light, run 1, well a": 1.40e5, "induced reporter light, run 1, well b": 1.47e5, "control promoter light, run 1, well a": 1.80e5, "control promoter light, run 1, well b": 1.57e5, "uninduced reporter light, run 1, well a": 9375, "Outcome": "inactive"}
{"Target gene": "Npc2f", "dsRNA": "DRSC15980", "induced reporter light, run 1, well a": 1.67e5, "induced reporter light, run 1, well b": 1.92e5, "control promoter light, run 1, well a": 2.06e5, "control promoter light, run 1, well b": 2.23e5, "uninduced reporter light, run 1, well a": 15888, "Outcome": "inactive"}
{"Target gene": "CG42748", "dsRNA": "DRSC03712", "induced reporter light, run 1, well a": 47505, "induced reporter light, run 1, well b": 48220, "control promoter light, run 1, well a": 36175, "control promoter light, run 1, well b": 34390, "uninduced reporter light, run 1, well a": 2875, "Outcome": "inactive"}
{"Target gene": "CG42748", "dsRNA": "DRSC03713", "induced reporter light, run 1, well a": 79865, "induced reporter light, run 1, well b": 74405, "control promoter light, run 1, well a": 46595, "control promoter light, run 1, well b": 55770, "uninduced reporter light, run 1, well a": 4175, "Outcome": "inactive"}
{"Target gene": "CG42748", "dsRNA": "DRSC03734", "induced reporter light, run 1, well a": 56835, "induced reporter light, run 1, well b": 54745, "control promoter light, run 1, well a": 49930, "control promoter light, run 1, well b": 30375, "uninduced reporter light, run 1, well a": 2915, "Outcome": "inactive"}
{"Target gene": "CG31650", "dsRNA": "DRSC03140", "induced reporter light, run 1, well a": 22540, "induced reporter light, run 1, well b": 30980, "control promoter light, run 1, well a": 20680, "control promoter light, run 1, well b": 22605, "uninduced reporter light, run 1, well a": 1765, "Outcome": "inactive"}
{"Target gene": "CG12814", "dsRNA": "DRSC14552", "induced reporter light, run 1, well a": 1.75e5, "induced reporter light, run 1, well b": 1.33e5, "control promoter light, run 1, well a": 1.04e5, "control promoter light, run 1, well b": 1.02e5, "uninduced reporter light, run 1, well a": 9780, "Outcome": "inactive"}
{"Target gene": "CG12814", "dsRNA": "DRSC14553", "induced reporter light, run 1, well a": 90130, "induced reporter light, run 1, well b": 70340, "control promoter light, run 1, well a": 70150, "control promoter light, run 1, well b": 48360, "uninduced reporter light, run 1, well a": 5015, "Outcome": "inactive"}
{"Target gene": "fs(2)ltoPP43", "dsRNA": "DRSC02067", "induced reporter light, run 1, well a": 53905, "induced reporter light, run 1, well b": 38810, "control promoter light, run 1, well a": 37530, "control promoter light, run 1, well b": 44985, "uninduced reporter light, run 1, well a": 3180, "Outcome": "inactive"}
{"Target gene": "Polr1H", "dsRNA": "DRSC14594", "induced reporter light, run 1, well a": 1.78e5, "induced reporter light, run 1, well b": 1.68e5, "control promoter light, run 1, well a": 2.65e5, "control promoter light, run 1, well b": 2.83e5, "uninduced reporter light, run 1, well a": 12005, "Outcome": "inactive"}
{"Target gene": "CG5334", "dsRNA": "DRSC19941", "induced reporter light, run 1, well a": 1.12e5, "induced reporter light, run 1, well b": 93470, "control promoter light, run 1, well a": 1.05e5, "control promoter light, run 1, well b": 91020, "uninduced reporter light, run 1, well a": 12900, "Outcome": "inactive"}
{"Target gene": "CG12547", "dsRNA": "DRSC07759", "induced reporter light, run 1, well a": 63375, "induced reporter light, run 1, well b": 1.00e5, "control promoter light, run 1, well a": 1.21e5, "control promoter light, run 1, well b": 1.01e5, "uninduced reporter light, run 1, well a": 6765, "Outcome": "inactive"}
